Measurements as given in publication PMC13453871.
These are yes or no findings as the source states them, for the method shown. Binding seen in cells or lysates may run through a third protein. A yes stands for co-enrichment or nearness to the bait. Other partners may have been found.

Biological target: T1, annexin A1 (UniProt P04083)
T1 sequence: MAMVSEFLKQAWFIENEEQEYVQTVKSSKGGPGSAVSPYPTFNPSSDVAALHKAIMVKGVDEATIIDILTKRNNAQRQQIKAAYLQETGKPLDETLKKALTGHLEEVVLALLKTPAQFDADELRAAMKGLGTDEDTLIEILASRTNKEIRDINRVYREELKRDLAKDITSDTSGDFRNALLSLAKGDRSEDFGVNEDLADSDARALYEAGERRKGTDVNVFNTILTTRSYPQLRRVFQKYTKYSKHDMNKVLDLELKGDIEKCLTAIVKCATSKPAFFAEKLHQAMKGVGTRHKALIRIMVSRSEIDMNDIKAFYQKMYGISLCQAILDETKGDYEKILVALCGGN
Test: affinity purification with mass spectrometry; mass spectrometry (Fig. S2G); bait, cells and conditions not told in the main text

binding: binds
B1: thioredoxin (protein, UniProt P10599 1-105)
chain: MVKQIESKTAFQEALDAAGDKLVVVDFSATWCGPCKMIKPFFHSLSEKYSNVIFLEVDVDDCQDVASECEVKCMPTFQFFKKGQKVGEFSGANKEKLEATINELV
